PMC6163214, “Etoposide-Induced Apoptosis in Cancer Cells Can Be Reinforced by an Uncoupled Link between Hsp70 and Caspase-3” (International Journal of Molecular Sciences, 2018)
Results are given in words; binding and its absence hold for the method and conditions named. Some results given as binding are weak or reduced against the parent protein; the word gives no strength.

Amino acid sequences for entries named in this document (tags omitted).
UniProt P0DMV8: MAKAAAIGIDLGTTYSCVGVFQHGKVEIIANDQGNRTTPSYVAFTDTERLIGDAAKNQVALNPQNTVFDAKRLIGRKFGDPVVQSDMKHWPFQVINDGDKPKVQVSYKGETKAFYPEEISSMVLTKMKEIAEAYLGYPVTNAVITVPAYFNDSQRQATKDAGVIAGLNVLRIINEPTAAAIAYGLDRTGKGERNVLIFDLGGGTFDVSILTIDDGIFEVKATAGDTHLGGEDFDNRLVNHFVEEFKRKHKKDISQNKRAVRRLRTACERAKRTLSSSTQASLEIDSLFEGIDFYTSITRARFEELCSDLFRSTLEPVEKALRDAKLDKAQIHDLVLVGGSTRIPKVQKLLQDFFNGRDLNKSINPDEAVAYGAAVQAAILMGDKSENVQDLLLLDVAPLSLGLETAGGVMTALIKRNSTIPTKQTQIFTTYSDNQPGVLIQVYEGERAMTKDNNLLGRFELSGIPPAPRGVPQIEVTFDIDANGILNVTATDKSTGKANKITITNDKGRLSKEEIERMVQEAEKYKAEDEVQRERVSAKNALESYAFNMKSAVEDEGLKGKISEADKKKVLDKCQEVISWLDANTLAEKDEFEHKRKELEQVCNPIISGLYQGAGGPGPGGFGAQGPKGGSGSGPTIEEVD

Target: T1, Carboxy-methylated α-lactalbumin (UniProt P00711)
T1 sequence (chain, carboxy-methylated (residues not stated)): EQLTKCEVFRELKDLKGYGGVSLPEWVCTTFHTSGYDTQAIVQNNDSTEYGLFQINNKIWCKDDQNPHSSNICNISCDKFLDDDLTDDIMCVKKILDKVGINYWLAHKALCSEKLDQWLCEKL
Assay: ELISA; substrate-binding enzyme immunoassay: CMLA immobilised on wells of an EIA plate; recombinant Hsp70 100 ng/mL in 20 mM Tris HCl, 20 mM NaCl, 10 mM MgCl2, pH 7.5, with or without BT44 or MKT-077; bound Hsp70 detected with anti-Hsp70 polyclonal antibody; both purified

**Q.** “Recombinant human Hsp70 (from UniProt P0DMV8 1-641)” was tested. Which binding did it give?
**A.** binds
